Experimental data: article PMC13189625
No constants are given. Whether binding was seen depends on the method and setting. In cells and extracts the contact can be indirect. Here binding means that the protein was enriched with, or labelled near, the bait; the list need not be complete.

The chains behind the UniProt entries cited, without tags or fusion partners.
UniProt O54851: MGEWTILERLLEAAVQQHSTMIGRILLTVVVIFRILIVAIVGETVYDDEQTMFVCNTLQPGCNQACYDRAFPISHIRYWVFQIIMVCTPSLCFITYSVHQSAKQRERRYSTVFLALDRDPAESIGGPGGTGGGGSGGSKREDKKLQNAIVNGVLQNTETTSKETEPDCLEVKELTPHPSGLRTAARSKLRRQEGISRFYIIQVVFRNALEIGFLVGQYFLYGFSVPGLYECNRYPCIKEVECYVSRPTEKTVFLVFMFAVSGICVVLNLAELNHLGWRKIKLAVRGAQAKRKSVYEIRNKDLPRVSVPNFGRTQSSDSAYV

Target: Cx36-EGFP (mouse) (UniProt O54851)
Assay: proximity labelling; GFP-directed TurboID in vivo: AAV HKamac_V5-TurboID-dGBP injected intravitreally into Cx36-EGFP mice (AII amacrine cells); 5 mM biotin subcutaneously on 4 days; 17 retinas a condition; streptavidin pull-down and LC/MS/MS; compared with injected wild-type mice, SAINT; done twice

Binder	binding
Shank2 (protein, UniProt Q80Z38 1-1476) MKSLLNAFTKKEVPFREAPAYSNRRRRPPNTLAAPRVLLRSNSDNNLNAGAPEWAVCSAATSHRSLSPQLLQQTPSKPDGATKSLGSYTPGPRSRSPSLNRLGGTAEDGKRTQPHWHVGSPFTPGANKDSLSTFEYPGPRRKLYSAVPGRLFVAVKPYQPQVDGEIPLHRGDRVKVLSIGEGGFWEGSARGHIGWFPAECVEEVQCKPRDSQAETRADRSKKLFRHYTVGSYDSFDAASDCIIEDKTVVLQKKDNEGFGFVLRGAKADTPIEEFTPTPAFPALQYLESVDEGGVAWQAGLRTGDFLIEVNNENVVKVGHRQVVNMIRQGGNHLILKVVTVTRNLDPDDTARKKAPPPPKRAPTTALTLRSKSMTAELEELGLSLVDKASVRKKKDKPEEIVPASKPSRTAENVAIESRVATIKQRPTSRCFPAASDVNSVYERQGIAVMTPTVPGSPKGPFLGLPRGTMRRQKSIDSRIFLSGITEEERQFLAPPMLKFTRSLSMPDTSEDIPPPPQSVPPSPPPPSPTTYNCPRSPTPRVYGTIKPAFNQNPVVAKVPPATRSDTVATMMREKGMFYRRELDRFSLDSEDVYSRSPAPQAAFRTKRGQMPENPYSEVGKIASKAVYVPAKPARRKGVLVKQSNVEDSPEKTCSIPIPTIIVKEPSTSSSGKSSQGSSMEIDPQATEPGQLRPDDSLTVSSPFAAAIAGAVRDREKRLEARRNSPAFLSTDLGDEDVGLGPPAPRMQASKFPEEGGFGDEDETEQPLLPTPGAAPRELENHFLGGGEAGAQGEAGGPLSSTSKAKGPESGPAAPLKSSSPAGPENYVHPLTGRLLDPSSPLALALSARDRAMQESQQGHKGEAPKADLNKPLYIDTKMRPSVESGFPPVTRQNTRGPLRRQETENKYETDLGKDRRADDKKNMLINIVDTAQQKSAGLLMVHTVDVPMAGPPLEEEEDREDGDTKPDHSPSTVPEGVPKTEGALQISAAPEPAVAPGRTIVAAGSVEEAVILPFRIPPPPLASVDLDEDFLFTEPLPPPLEFANSFDIPDDRAASVPALADLVKQKKNDTSQPPTLNSSQPANSTDSKKPAGISNCLPSSFLPPPESFDAVTDSGIEEVDSRSSSDHHLETTSTISTVSSISTLSSEGGESMDTCTVYADGQAFVVDKPPVPPKPKMKPIVHKSNALYQDTLPEEDTDGFVIPPPAPPPPPGSAQAGVAKVIQPRTSKLWGDVPEVKSPILSGPKANVISELNSILQQMNRGKSVKPGEGLELPVGAKSANLAPRSPEVMSTVSGTRSTTVTFTVRPGTSQPITLQSRPPDYESRTSGPRRAPSPVVSPTELSKEILPTPPPPSATAASPSPTLSDVFSLPSQSPAGDLFGLNPAGRSRSPSPSILQQPISNKPFTTKPVHLWTKPDVADWLESLNLGEHKETFMDNEIDGSHLPNLQKEDLIDLGVTRVGHRMNIERALKQLLDR	binds
Adenylyl cyclase-associated protein1 (protein, UniProt P40124 1-474) MADMQNLVERLERAVGRLEAVSHTSDMHCGYGDSPSKGAVPYVQAFDSLLANPVAEYLKMSKEIGGDVQKHAEMVHTGLKLERALLATASQCQQPAGNKLSDLLAPISEQIQEVITFREKNRGSKFFNHLSAVSESIQALGWVALAAKPGPFVKEMNDAAMFYTNRVLKEYRDVDKKHVDWVRAYLSIWTELQAYIKEFHTTGLAWSKTGPVAKELSGLPSGPSVGSGPPPPPPGPPPPPISTSSGSDDSASRSALFAQINQGESITHALKHVSDDMKTHKNPALKAQSGPVRSGPKPFSAPKPQTSPSPKPATKKEPALLELEGKKWRVENQENVSNLVIDDTELKQVAYIYKCVNTTLQIKGKINSITVDNCKKLGLVFDDVVGIVEIINSRDVKVQVMGKVPTISINKTDGCHAYLSKNSLDCEIVSAKSSEMNVLIPTEGGDFNEFPVPEQFKTLWNGQKLVTTVTEIAG	binds
